The text below walks through data of the supplement of paper PMC4635364.

The test system of experiment [1] is ReNCell VM. The experiment can be described thus: neuronal differentiation score (DCX+ cell fraction vs untreated, manual image score) (score (-3 to 3)); higher = more neuronal differentiation. As to conditions: 2 uM, 2 weeks.
The test system of experiment [2] is ReNCell VM. The experiment can be described thus: dopaminergic neuron differentiation score (TH+ cell fraction vs untreated, manual image score) (score (0 to 3)); higher = more TH+ dopaminergic neuron differentiation. As to conditions: 2 uM, 4 weeks, BDNF 10 ng/ml + GDNF 10 ng/ml.

Counter-ions that a name gives are not always drawn. The list shows a part of the results. This data set is noisy: repeats of one test often differ as much as different tests do.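 ReNCell VM, a human fetal ventral-midbrain neural progenitor line, was differentiated without mitogens. Blinded raters scored images stained for doublecortin (early neurons) or tyrosine hydroxylase (dopaminergic neurons) against untreated wells (0 = no change). Scores were averaged across repeats and both raters, and compounds averaging 2 or more were selected as hits for retesting.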

In the case of `NS(=O)(=O)c1cc(C2(O)NC(=O)c3ccccc32)ccc1Cl` (stereo not given) [Chlorthalidone], the neuronal differentiation score in the experiment with ReNCell VM [1] (library: Prestwick) is inactive: 0. The “dopaminergic neuron differentiation score” value in the experiment on ReNCell VM [2] (library: Prestwick) was inactive: 0.
Regarding `COc1cc(O)c2c(=O)c(OC)c(-c3ccc(OC)c(OC)c3)oc2c1`, the neuronal differentiation score in the experiment with ReNCell VM [1] (library: Spectrum) was inactive: 0. Besides, the “dopaminergic neuron differentiation score” value in the experiment on ReNCell VM [2] (library: Spectrum) was active: 3.
The corresponding values for `COc1cc2c(cc1OC)C1C(=O)c3c(cc4c(c3O)C=CC(C)(C)O4)OC1CO2` (stereo not drawn) [beta-TOXICAROL] are inactive: 0 and inactive: 0.
Turning to `Cc1nnc(SCC2=C(C(=O)O)N3C(=O)[C@@H](NC(=O)Cn4cnnn4)[C@H]3SC2)s1` [Cefazolin sodium], the neuronal differentiation score in the experiment with ReNCell VM [1] (library: LOPAC) was inactive: 0. In addition, the “dopaminergic neuron differentiation score” value in the experiment with ReNCell VM [2] (library: LOPAC) was inactive: 0.
In the case of `CC(=O)[C@H]1CC[C@H]2[C@@H]3CCC4=CC(=O)CC[C@]4(C)[C@H]3CC[C@]12C`, the neuronal differentiation score with ReNCell VM [1] (library: Spectrum) was inactive: -1. For the same compound, the “dopaminergic neuron differentiation score” value with ReNCell VM [2] (library: Spectrum) was inactive: 0.
Take `CCOC(=O)c1ccc(OC(=O)CCCCCNC(=N)N)cc1` [Gabexate mesilate]: the neuronal differentiation score in the experiment with ReNCell VM [1] (library: Prestwick) was inactive: 0. For the same compound, the “dopaminergic neuron differentiation score” value with ReNCell VM [2] (library: Prestwick) was inactive: 0.
For `COC1=C(O)C(=O)c2c(cc3oc(C(C)=O)c(O)c3c2O)C1=O`, the neuronal differentiation score with ReNCell VM [1] (library: Spectrum) was inactive: 0. Moreover, the “dopaminergic neuron differentiation score” value with ReNCell VM [2] (library: Spectrum) was inactive: 0.
For `N[C@@H](CSS(=O)(=O)O)C(=O)O` [S-Sulfo-L-cysteine sodium salt], the neuronal differentiation score with ReNCell VM [1] (library: Tocriscreen) was inactive: 0. Also, the “dopaminergic neuron differentiation score” value with ReNCell VM [2] (library: Tocriscreen) is active: 3.
For the compound `COc1cc(-c2ccc(/N=N/c3ccc4c(S(=O)(=O)O)cc(S(=O)(=O)O)c(N)c4c3O)c(OC)c2)ccc1/N=N/c1ccc2c(S(=O)(=O)O)cc(S(=O)(=O)O)c(N)c2c1O`, the neuronal differentiation score in the experiment on ReNCell VM [1] (library: Spectrum) is inactive: 0. The “dopaminergic neuron differentiation score” value in the experiment on ReNCell VM [2] (library: Spectrum) was inactive: 0.
In the case of `CCN(CC)CC1CCCCN1CC(=O)N1c2ccccc2C(=O)Nc2cccnc21` (stereo not given), in the experiment with ReNCell VM [1] (library: Tocriscreen), the neuronal differentiation score is inactive: -3. In the experiment with ReNCell VM [2] (library: Tocriscreen), the “dopaminergic neuron differentiation score” value was inactive: 0.
Take `CCCN(CCC)S(=O)(=O)c1ccc(C(=O)O)cc1` [Probenecid]: the neuronal differentiation score in the experiment on ReNCell VM [1] (library: Prestwick) was inactive: 0. Also, the “dopaminergic neuron differentiation score” value in the experiment with ReNCell VM [2] (library: Prestwick) was inactive: 0.
For the compound `O=C(CCCCC(=O)Nc1c(I)cc(I)c(C(=O)O)c1I)Nc1c(I)cc(I)c(C(=O)O)c1I` [Iodipamide], the neuronal differentiation score in the experiment with ReNCell VM [1] (library: Prestwick) is inactive: 0. Moreover, the “dopaminergic neuron differentiation score” value with ReNCell VM [2] (library: Prestwick) was inactive: 0.
As to `CCCc1nc(C(C)(C)O)c(C(=O)O)n1Cc1ccc(-c2ccccc2-c2nnn[nH]2)cc1` [Olmesartan], the neuronal differentiation score in the experiment on ReNCell VM [1] (library: Prestwick) is inactive: 0. For the same compound, the “dopaminergic neuron differentiation score” value in the experiment with ReNCell VM [2] (library: Prestwick) was inactive: 0.
For `CC(=O)Oc1ccc2c(c1OC(C)=O)OCC1(O)Cc3c(cc(OC(C)=O)c(OC(C)=O)c3OC(C)=O)C21` (stereo not given), the neuronal differentiation score with ReNCell VM [1] (library: Spectrum) is inactive: 0. The “dopaminergic neuron differentiation score” value in the experiment with ReNCell VM [2] (library: Spectrum) is inactive: 0.
For the compound `CC(C)CCC[C@@H](C)[C@H]1CC[C@H]2[C@@H]3CC(=O)[C@H]4C[C@@H](O)CC[C@]4(C)[C@H]3CC[C@]12C` [5alpha-CHOLESTAN-3beta-OL-6-ONE], the neuronal differentiation score in the experiment on ReNCell VM [1] (library: Spectrum) is inactive: 0. The “dopaminergic neuron differentiation score” value in the experiment on ReNCell VM [2] (library: Spectrum) is inactive: 0.
On to `O[C@H]1[C@H](O)[C@@H](O)[C@H](O)[C@@H](O)[C@H]1O`, for which the neuronal differentiation score with ReNCell VM [1] (library: Spectrum) is inactive: 0. Also, in the experiment on ReNCell VM [2] (library: Spectrum), the “dopaminergic neuron differentiation score” value is inactive: 0.
Consider `NC12CC3CC(CC(C3)C1)C2` [Amantadine hydrochloride], for which, in the experiment with ReNCell VM [1] (library: LOPAC), the neuronal differentiation score was inactive: 0. Also, in the experiment with ReNCell VM [2] (library: LOPAC), the “dopaminergic neuron differentiation score” value was inactive: 0.
Take `CC(C)NCC(O)c1cc(O)cc(O)c1` (stereo not given): the neuronal differentiation score with ReNCell VM [1] (library: Spectrum) was inactive: 0. In the experiment on ReNCell VM [2] (library: Spectrum), the “dopaminergic neuron differentiation score” value was inactive: 0.
Take `COC1=C[C@@H](C)[C@@H]2C[C@H]3OC(=O)C[C@H]4C(C)=C(OC)C(=O)[C@H]([C@@]2(C)C1=O)[C@@]34C` [quassin]: in the experiment with ReNCell VM [1] (library: Natural), the neuronal differentiation score was inactive: 0. The “dopaminergic neuron differentiation score” value with ReNCell VM [2] (library: Natural) is inactive: 0.
`COc1c(OC)c2occc2c2oc(=O)ccc12`: the neuronal differentiation score in the experiment with ReNCell VM [1] (library: Spectrum) was inactive: 0. In addition, the “dopaminergic neuron differentiation score” value in the experiment with ReNCell VM [2] (library: Spectrum) was inactive: 0.
`CC(C)[C@H](CO)Nc1nc(Nc2cccc(Cl)c2)c2ncn(C(C)C)c2n1` [Purvalanol A]: in the experiment with ReNCell VM [1] (library: Tocriscreen), the neuronal differentiation score was inactive: 0. For the same compound, the “dopaminergic neuron differentiation score” value in the experiment with ReNCell VM [2] (library: Tocriscreen) was inactive: 0.
For the compound `CCCCCC(C)N` (stereo not given), in the experiment on ReNCell VM [1] (library: Spectrum), the neuronal differentiation score was inactive: 0. The “dopaminergic neuron differentiation score” value in the experiment with ReNCell VM [2] (library: Spectrum) is inactive: 0.
In the case of `CCN(CC)CCc1nc(-c2ccccc2)no1`, the neuronal differentiation score in the experiment with ReNCell VM [1] (library: Spectrum) is inactive: 0. Further, the “dopaminergic neuron differentiation score” value in the experiment on ReNCell VM [2] (library: Spectrum) is inactive: 0.
Take `O=C1c2c(O)ccc(O)c2C(=O)c2c(NCCNCCO)ccc(NCCNCCO)c21` [Mitoxantrone dihydrochloride]: the neuronal differentiation score in the experiment on ReNCell VM [1] (library: Prestwick) is inactive: 0. Moreover, in the experiment on ReNCell VM [2] (library: Prestwick), the “dopaminergic neuron differentiation score” value was inactive: 0.
For `Cc1cc2c(s1)Nc1ccccc1N=C2N1CCN(C)CC1`, the neuronal differentiation score in the experiment on ReNCell VM [1] (library: Spectrum) is inactive: 1. Moreover, in the experiment on ReNCell VM [2] (library: Spectrum), the “dopaminergic neuron differentiation score” value was inactive: 0.
As to `CC(=O)c1ccc2c(c1)N(CCCN1CCC(CCO)CC1)c1ccccc1S2`, the neuronal differentiation score in the experiment with ReNCell VM [1] (library: Spectrum) was inactive: 1. Moreover, the “dopaminergic neuron differentiation score” value in the experiment with ReNCell VM [2] (library: Spectrum) is inactive: 0.
For `O=C(O)c1cc(/N=N/c2ccc(O)c(C(=O)O)c2)ccc1O`, in the experiment with ReNCell VM [1] (library: Spectrum), the neuronal differentiation score is inactive: 0. In the experiment on ReNCell VM [2] (library: Spectrum), the “dopaminergic neuron differentiation score” value is inactive: 0.
Take `O=C(O[C@H]1CN2CCC1CC2)N1CCc2ccccc2[C@@H]1c1ccccc1`: the neuronal differentiation score in the experiment on ReNCell VM [1] (library: Spectrum) is inactive: 0. Also, the “dopaminergic neuron differentiation score” value in the experiment on ReNCell VM [2] (library: Spectrum) was inactive: 0.
Turning to `COc1cc(C(=O)NS(=O)(=O)c2ccccc2C)ccc1Cc1cn(C)c2ccc(NC(=O)OC3CCCC3)cc12` [Zafirlukast], the neuronal differentiation score in the experiment with ReNCell VM [1] (library: Prestwick) was inactive: 0. Also, the “dopaminergic neuron differentiation score” value with ReNCell VM [2] (library: Prestwick) is inactive: 0.
`COc1cc2ncnc(Nc3ccc(Cl)cc3F)c2cc1OC`: the neuronal differentiation score in the experiment on ReNCell VM [1] (library: Tocriscreen) is inactive: 0. In the experiment with ReNCell VM [2] (library: Tocriscreen), the “dopaminergic neuron differentiation score” value was inactive: 0.
On to `Cc1c(C(N)=O)cc([N+](=O)[O-])cc1[N+](=O)[O-]`, for which, in the experiment with ReNCell VM [1] (library: Spectrum), the neuronal differentiation score was inactive: 0. Also, the “dopaminergic neuron differentiation score” value with ReNCell VM [2] (library: Spectrum) is inactive: 0.
With `CC(C)C[C@H](NC(=O)[C@@H](O)[C@H](N)Cc1ccccc1)C(=O)O` [Bestatin hydrochloride], the neuronal differentiation score in the experiment on ReNCell VM [1] (library: LOPAC) was inactive: 0. Also, the “dopaminergic neuron differentiation score” value in the experiment on ReNCell VM [2] (library: LOPAC) is inactive: 0.
As to `C[N+]1(C)CCC(OC(=O)C(O)(c2ccccc2)C2CCCC2)C1` (stereo not given) [Glycopyrrolate], the neuronal differentiation score in the experiment on ReNCell VM [1] (library: Prestwick) was inactive: 0. Moreover, the “dopaminergic neuron differentiation score” value with ReNCell VM [2] (library: Prestwick) is inactive: 0.
Consider `CN(C)[C@@H]1C(O)=C(C(N)=O)C(=O)[C@@]2(O)C(O)=C3C(=O)c4c(O)cccc4[C@@](C)(O)[C@H]3[C@H](O)[C@@H]12` [Oxytetracycline dihydrate], for which the neuronal differentiation score in the experiment on ReNCell VM [1] (library: Prestwick) was inactive: 0. For the same compound, the “dopaminergic neuron differentiation score” value in the experiment on ReNCell VM [2] (library: Prestwick) was inactive: 0.
On to `CCCC(CCC)C(=O)O` [Valproic acid sodium], for which the neuronal differentiation score with ReNCell VM [1] (library: LOPAC) was inactive: 0. The “dopaminergic neuron differentiation score” value in the experiment on ReNCell VM [2] (library: LOPAC) is inactive: 0.
